# Assay results as given in publication PMC4189786.
# System: serum albumin (HSA in Results and figures + Methods state purchased bovine serum albumin, Sigma A7030)
# Experiment: UV absorbance titration
# Details: off-target, 6 uM albumin in phosphate buffer (10 mM) pH 7.4, 37 C, excitation 290 nm, emission 300-400 nm, 90 s after each aptamer addition, commercial protein, single-stranded DNA
Sequence,"binding result (20 nm shift, suggested ground-state complex, static quenching)","binding result (6 nm shift, suggested no complex, dynamic quenching)"
GGGAGACAAGAATAAACGCTCAAATGGACTTTTGAATGTGGCAACAAATTCGACAGGAGGCTCACAACAGGC [1.5 M Long],binds,
ACTTTTGAATGTGGCAACAAATTCGACAGG [1.5 M Short],,no binding

# The exact form of at least one protein or probe is not confirmed. Negatives hold for the conditions tested.
